In article PMC11559043:
Results are given in words; binding and its absence hold for the method and conditions named. Binding seen in cells or lysates may run through a third protein. Some entries that bind do so weakly or less than the wild type.

Protein sequences, listed by entry. Tags and fused reporters are not part of them.
UniProt Q99496: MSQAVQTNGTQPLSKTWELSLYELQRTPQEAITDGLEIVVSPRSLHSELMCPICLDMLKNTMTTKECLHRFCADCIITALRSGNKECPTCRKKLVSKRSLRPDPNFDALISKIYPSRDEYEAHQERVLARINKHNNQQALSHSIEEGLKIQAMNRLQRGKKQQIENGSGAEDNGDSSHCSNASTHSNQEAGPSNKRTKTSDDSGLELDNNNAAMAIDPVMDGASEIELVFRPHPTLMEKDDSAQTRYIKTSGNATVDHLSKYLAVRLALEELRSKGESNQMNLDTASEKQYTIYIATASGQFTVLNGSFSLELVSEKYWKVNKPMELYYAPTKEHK
UniProt P61289: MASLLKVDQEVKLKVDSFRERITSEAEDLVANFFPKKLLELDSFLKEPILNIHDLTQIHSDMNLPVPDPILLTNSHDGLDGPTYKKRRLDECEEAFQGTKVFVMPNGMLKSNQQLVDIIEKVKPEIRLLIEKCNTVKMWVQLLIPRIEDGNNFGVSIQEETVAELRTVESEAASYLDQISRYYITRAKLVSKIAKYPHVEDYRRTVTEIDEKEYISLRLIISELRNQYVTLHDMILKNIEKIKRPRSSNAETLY

Key:
[1] = biological target: N-terminal HA-tagged RNF2 (human) (UniProt Q99496); experiment: co-IP; FLAG-PA28γ expressed in 293T cells together with HA-RNF1 or HA-RNF2; harvested 48 h post-transfection; immunoprecipitates with anti-HA or anti-FLAG antibodies blotted with anti-FLAG or anti-HA
[2] = biological target: N-terminal FLAG-tagged PA28γ (UniProt P61289); experiment: as above

| binding [1] | binding [2] | Substance |
| --- | --- | --- |
| binds | – | N-terminal FLAG-tagged PA28γ (from UniProt P61289 1-254) |
| – | binds | N-terminal HA-tagged RNF2 (from UniProt Q99496 1-336) |
